# The supplement of paper PMC6411743
# ± gives the standard deviation of the averaged measurements. This is one part of the list.
# How the values were obtained:
# Test in all cases: NP40-soluble protein abundance relative to vehicle (solubility fold change) (ratio); higher = more soluble protein in presence of GTP
# [1] = molecular target: T1, GLA (UniProt P06280)
# T1 sequence (whole entry): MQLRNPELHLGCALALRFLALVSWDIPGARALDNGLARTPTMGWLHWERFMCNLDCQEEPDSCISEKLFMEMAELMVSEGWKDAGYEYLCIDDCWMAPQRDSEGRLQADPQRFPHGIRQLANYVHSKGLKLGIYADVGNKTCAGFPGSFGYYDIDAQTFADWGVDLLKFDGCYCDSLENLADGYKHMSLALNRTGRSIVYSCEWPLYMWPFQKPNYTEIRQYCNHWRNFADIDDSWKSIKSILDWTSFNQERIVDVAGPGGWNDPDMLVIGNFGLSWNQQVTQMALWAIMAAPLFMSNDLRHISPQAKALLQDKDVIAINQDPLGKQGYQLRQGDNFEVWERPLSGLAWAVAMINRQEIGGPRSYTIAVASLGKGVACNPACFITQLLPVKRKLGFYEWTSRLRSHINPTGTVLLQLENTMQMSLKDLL
# Method in brief: (§1)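 In three independent experiments, Jurkat crude lysate made by Dounce homogenisation was treated for 10 min at room temperature and then 3 min at 37 °C with eight concentrations ranging from 0.1 to 10 mM. It was then solubilised with 0.8% NP40 plus benzonase for 60 min at 4 °C and ultracentrifuged. The supernatant was TMT-labelled for LC-MS/MS, and each value is the fold change against the detergent-processed vehicle for the same replicate, using vsn-normalised intensities.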
# [2] = molecular target: T2, SEC24A (UniProt O95486)
# T2 sequence (whole entry): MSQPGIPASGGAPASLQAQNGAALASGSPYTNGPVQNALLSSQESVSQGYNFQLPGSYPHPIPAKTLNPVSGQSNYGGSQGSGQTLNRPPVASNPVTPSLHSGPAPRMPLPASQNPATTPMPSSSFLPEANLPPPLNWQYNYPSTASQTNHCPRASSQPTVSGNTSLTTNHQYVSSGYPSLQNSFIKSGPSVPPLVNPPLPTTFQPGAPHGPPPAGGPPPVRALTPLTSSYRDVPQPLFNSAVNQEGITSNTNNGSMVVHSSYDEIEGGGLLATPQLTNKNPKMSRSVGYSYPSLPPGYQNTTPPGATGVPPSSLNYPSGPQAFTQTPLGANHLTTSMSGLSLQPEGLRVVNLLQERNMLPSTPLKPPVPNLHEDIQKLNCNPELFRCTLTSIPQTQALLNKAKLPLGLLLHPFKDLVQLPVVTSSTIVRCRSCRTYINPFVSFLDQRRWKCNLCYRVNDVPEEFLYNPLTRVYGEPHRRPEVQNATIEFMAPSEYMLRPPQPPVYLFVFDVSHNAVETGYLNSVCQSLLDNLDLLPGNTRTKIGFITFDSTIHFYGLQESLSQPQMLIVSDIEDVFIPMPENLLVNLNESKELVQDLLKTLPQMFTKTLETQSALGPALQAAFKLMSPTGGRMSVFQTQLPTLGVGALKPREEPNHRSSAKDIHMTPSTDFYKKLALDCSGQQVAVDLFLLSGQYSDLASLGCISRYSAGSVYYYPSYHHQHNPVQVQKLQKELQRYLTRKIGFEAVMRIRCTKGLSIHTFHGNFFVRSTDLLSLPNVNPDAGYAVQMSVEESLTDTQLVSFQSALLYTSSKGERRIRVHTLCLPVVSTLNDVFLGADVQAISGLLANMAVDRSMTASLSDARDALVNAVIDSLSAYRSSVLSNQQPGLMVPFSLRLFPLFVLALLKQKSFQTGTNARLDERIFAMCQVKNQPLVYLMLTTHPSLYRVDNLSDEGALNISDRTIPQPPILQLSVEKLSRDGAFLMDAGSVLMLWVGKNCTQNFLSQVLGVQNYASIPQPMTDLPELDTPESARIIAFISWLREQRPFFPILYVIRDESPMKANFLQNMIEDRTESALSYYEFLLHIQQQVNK
# Method in brief: as §1
# [3] = molecular target: T3, SPAG7 (UniProt O75391)
# T3 sequence (whole entry): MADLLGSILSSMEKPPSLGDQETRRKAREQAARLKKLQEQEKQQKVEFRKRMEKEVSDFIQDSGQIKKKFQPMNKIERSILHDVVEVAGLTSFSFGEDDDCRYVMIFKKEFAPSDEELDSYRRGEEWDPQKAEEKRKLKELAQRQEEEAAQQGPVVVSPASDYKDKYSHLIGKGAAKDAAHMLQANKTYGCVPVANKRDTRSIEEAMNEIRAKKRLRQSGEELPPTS
# Method in brief: as §1
# [4] = molecular target: T4, USP1 (UniProt O94782)
# T4 sequence (whole entry): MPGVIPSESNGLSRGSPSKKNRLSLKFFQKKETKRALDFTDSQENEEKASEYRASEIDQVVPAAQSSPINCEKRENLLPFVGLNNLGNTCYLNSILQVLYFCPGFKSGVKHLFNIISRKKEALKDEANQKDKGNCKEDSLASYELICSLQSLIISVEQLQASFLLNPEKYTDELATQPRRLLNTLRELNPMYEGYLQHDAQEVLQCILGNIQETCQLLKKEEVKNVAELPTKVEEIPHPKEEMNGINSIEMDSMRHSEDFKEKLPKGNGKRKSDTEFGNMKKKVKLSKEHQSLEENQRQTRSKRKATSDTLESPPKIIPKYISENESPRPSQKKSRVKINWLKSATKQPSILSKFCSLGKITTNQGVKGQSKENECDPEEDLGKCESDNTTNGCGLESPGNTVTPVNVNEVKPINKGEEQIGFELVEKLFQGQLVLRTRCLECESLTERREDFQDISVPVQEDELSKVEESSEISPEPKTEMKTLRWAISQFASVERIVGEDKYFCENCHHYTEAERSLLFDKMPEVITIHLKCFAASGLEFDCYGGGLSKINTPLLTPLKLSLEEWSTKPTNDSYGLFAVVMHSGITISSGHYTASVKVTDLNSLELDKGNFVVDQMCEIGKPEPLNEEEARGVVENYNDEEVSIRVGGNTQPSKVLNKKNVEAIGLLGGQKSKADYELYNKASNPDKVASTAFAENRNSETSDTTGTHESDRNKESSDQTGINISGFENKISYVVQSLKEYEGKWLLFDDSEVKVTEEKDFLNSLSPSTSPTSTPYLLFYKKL
# Method in brief: as §1
smiles,measurement,setting,value
Nc1nc2c(ncn2[C@@H]2O[C@H](COP(=O)(O)OP(=O)(O)OP(=O)(O)O)[C@@H](O)[C@H]2O)c(=O)[nH]1 [guanosine triphosphate],NP40-soluble protein abundance,[1]; concentration: 1mM,1.01 ± 0.039
same,NP40-soluble protein abundance,[1]; concentration: 2mM,0.982 ± 0.068
same,NP40-soluble protein abundance,[1]; concentration: 4mM,0.985 ± 0.063
same,NP40-soluble protein abundance,[1]; concentration: 6mM,0.966 ± 0.087
same,NP40-soluble protein abundance,[1]; concentration: 8mM,0.983 ± 0.04
same,NP40-soluble protein abundance,[1]; concentration: 10mM,0.979 ± 0.048
same,NP40-soluble protein abundance,[2]; concentration: 0.1mM,0.974 ± 0.013
same,NP40-soluble protein abundance,[2]; concentration: 0.5mM,0.986 ± 0.021
same,NP40-soluble protein abundance,[2]; concentration: 1mM,0.926 ± 0.041
same,NP40-soluble protein abundance,[2]; concentration: 2mM,0.909 ± 0.026
same,NP40-soluble protein abundance,[2]; concentration: 4mM,0.957 ± 0.019
same,NP40-soluble protein abundance,[2]; concentration: 6mM,0.944 ± 0.02
same,NP40-soluble protein abundance,[2]; concentration: 8mM,0.909 ± 0.027
same,NP40-soluble protein abundance,[2]; concentration: 10mM,0.915 ± 0.036
same,NP40-soluble protein abundance,[3]; concentration: 0.1mM,0.906 ± 0.06
same,NP40-soluble protein abundance,[3]; concentration: 0.5mM,0.848 ± 0.081
same,NP40-soluble protein abundance,[3]; concentration: 1mM,0.997 ± 0.071
same,NP40-soluble protein abundance,[3]; concentration: 2mM,0.908 ± 0.066
same,NP40-soluble protein abundance,[3]; concentration: 4mM,0.896 ± 0.095
same,NP40-soluble protein abundance,[3]; concentration: 6mM,0.909 ± 0.13
same,NP40-soluble protein abundance,[3]; concentration: 8mM,0.897 ± 0.14
same,NP40-soluble protein abundance,[3]; concentration: 10mM,0.899 ± 0.061
same,NP40-soluble protein abundance,[4]; concentration: 0.1mM,1.06 ± 0.14
same,NP40-soluble protein abundance,[4]; concentration: 0.5mM,0.994 ± 0.047
same,NP40-soluble protein abundance,[4]; concentration: 1mM,1.02 ± 0.053
same,NP40-soluble protein abundance,[4]; concentration: 2mM,0.98 ± 0.063

# 2 records picked at random from the list so far, as already listed:
smiles,measurement,setting,value
Nc1nc2c(ncn2[C@@H]2O[C@H](COP(=O)(O)OP(=O)(O)OP(=O)(O)O)[C@@H](O)[C@H]2O)c(=O)[nH]1 [guanosine triphosphate],NP40-soluble protein abundance,[3]; concentration: 6mM,0.909 ± 0.13
same,NP40-soluble protein abundance,[3]; concentration: 0.1mM,0.906 ± 0.06
